Consider 1 compound from patent publication US4404378A, “2-Substituted or unsubstituted aminocarbonyloxyalkyl-1,4-dihydropyridines” (Banyu Pharmaceutical Co., Ltd., priority 1981, dated 1983).

Data set [1] in a line: Acute toxicity, i.v., up-and-down method. The settings on record: mouse, in vivo, iv.
Another data set deals with DM strain male mice. Description: Acute toxicity, i.v., up-and-down method. Particulars: Table 1(a); i.v., male mice.

The structures appear in SMILES notation.

One may read the LD50 as the dose at which mortality reaches 50%. As for `COC(=O)C1=C(C)NC(C)=C(C(=O)OC)C1c1ccccc1[N+](=O)[O-]` [nifedipine, 2,6-Dimethyl-4-(2-nitrophenyl)-3,5-dimethoxycarbonyl-1,4-dihydropyridine], the 50% lethal dose (LD50) in data set [1] turned out to be 11.5 mg/kg. For the same compound, in the data set on DM strain male mice, the “Acute toxicity LD50” value amounted to 11.5 mg/kg.
